In PubChem BioAssay AID493014 (National Center for Advancing Translational Sciences (NCATS), 2011) one finds AC50 data, which are given here for 16 compounds.

This assay is described as follows: qHTS Assay to Find Inhibitors of Chronic Active B-Cell Receptor Signaling. The conditions noted are these: ABC-DLBCL IkBa-CBG/CBR reporter, luminescence ratio (green luciferase fused to IkBa over red control in TMD8 lymphoma cells), 4 h. Summed up:
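Compounds up to 46 uM were incubated four hours with TMD8 cells whose green CBG68 luciferase is fused to IkappaBalpha; red CBR luminescence normalised the signal, and concentration-effect curves were fitted to fusion, red and ratio data.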
(In general: In qHTS, concentration-response curves come from the screen itself.)

[1] abbreviates: measured here: CBR red luminescence, cell number.
Setting [2] is: measured here: IkBa-CBG green luminescence.

Some of the results follow. Shown are side measurements of this screen, not its main read-out; they come without a call. The list favours compounds with an active or inconclusive main result. Words in brackets tell the shape of the fitted curve; partial curves, single points and poor fits give uncertain potencies.

As usually defined, the AC50 is the concentration at which the activity in the assay is half-maximal. As for `COc1ccc(Cl)cc1C(=O)O/N=C(\N)c1ccncc1`, the AC50 under setting [1] is 0.126 µM [rising, full curve, poor fit].

Regarding `CC(C)(C)c1ccc(CN2N=Nc3ccccc3S2(=O)=O)cc1`, the AC50 is 25.1 µM [rising, single point] under setting [1] and 15.8 µM [falling, single point] under setting [2].

For the compound `CCN1CCc2c(sc(NC(=O)c3ccc(S(=O)(=O)N4CCCC(C)C4)cc3)c2C(=O)OC)C1` (stereo not drawn), the AC50 under setting [1] is 0.562 µM [falling, partial curve, poor fit].

Take `CCCc1[nH]nc2c1C(c1ccncc1)C(C#N)=C(N)O2` (stereo not drawn): the AC50 under setting [1] is 35.5 µM [falling, partial curve, poor fit].

Regarding `CC(=O)Nc1cccc(NC(=O)CCc2ccccc2)c1`, the AC50 under setting [1] is 3.26 µM [falling, full curve].

With `CCS(=O)(=O)c1cc([N+](=O)[O-])c(Sc2ccccc2N)s1`, the AC50 under setting [1] was 1.78 µM [rising, partial curve, poor fit].

Take `CN(C)C(=O)c1cn(-c2ccccc2)nc1-c1cccc([N+](=O)[O-])c1`: the AC50 under setting [1] is 5.01 µM [rising, full curve, poor fit].

For `COC(=O)C1=CN(Cc2ccc(OC)c(OC)c2)C=C(C(=O)OC)C1c1ccc(F)cc1`, the AC50 under setting [1] was 2.24 µM [rising, partial curve, poor fit].

With `COc1ccc(/C=C2\SC(=S)N(CCC(=O)Nc3ccc(C(=O)O)cc3)C2=O)cc1`, under setting [1], the AC50 was 6.31 µM [falling, partial curve, poor fit].

As to `COC(=O)c1cccc2c1-c1ccccc1/C2=N/O`, the AC50 under setting [1] is 1.3 µM [falling, full curve, poor fit].

`CCOC(=O)c1c(S(=O)(=O)N2CCC(C(=O)NCc3cccc(OC)c3)CC2)c(C)n(C)c1C`: the AC50 under setting [1] is 3.16 µM [rising, single point].

With `O=C(N/N=C/c1ccc2c(c1)OCO2)c1ccc2ccccc2n1`, under setting [1], the AC50 was 11.2 µM [falling, single point].

As to `COc1ccc(NC(=O)COc2ccc(/C=N/NC(=O)c3cccnc3)cc2OC)cc1`, the AC50 under setting [1] is 20.6 µM [falling, single point].

Turning to `CC[n+]1c(/C=C/N(C)c2ccccc2)n(-c2ccccc2)c2ccc(-c3nc4ccccc4s3)cc21`, the AC50 under setting [1] was 7.94 µM [falling, partial curve] and the AC50 under setting [2] was 35.5 µM [rising, partial curve, poor fit].

Consider `Cc1ccc2c(c1)C1(C)C(C(C)(C)N2C=O)C1(Cl)Cl` (stereo not drawn), for which, under setting [1], the AC50 was 15.8 µM [rising, partial curve, poor fit].

Turning to `Cc1cc(C(=O)N/N=C/c2ccc3c(c2)OCO3)c(C)o1`, under setting [1], the AC50 is 4.47 µM [falling, partial curve].
